Source: the M2OR odorant receptor database
Positions count from the first letter of the chain named. This is a selection; strong and weak results do not stand in their true shares. The calls were merged from several studies; some rest on single wells. The list shows a part of the results.

Chains of the proteins cited; added tags and fusions are not shown. Chains listed by the source or under a name are the forms on record and can include a tag or linker.
OR2M7, as listed by the source: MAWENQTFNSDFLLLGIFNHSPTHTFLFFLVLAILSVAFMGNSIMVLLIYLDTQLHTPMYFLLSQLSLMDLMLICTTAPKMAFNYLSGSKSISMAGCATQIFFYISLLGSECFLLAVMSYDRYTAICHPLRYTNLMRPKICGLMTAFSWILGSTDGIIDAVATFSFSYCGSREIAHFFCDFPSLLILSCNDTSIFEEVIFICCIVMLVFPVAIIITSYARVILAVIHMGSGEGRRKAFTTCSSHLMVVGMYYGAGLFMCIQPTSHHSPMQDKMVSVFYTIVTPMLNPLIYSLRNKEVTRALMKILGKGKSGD

What was measured:
Conditions in all cases: stereoisomer not certain
OR2M3 (Homo sapiens) = target: T1, OR2M3 (Homo sapiens) (UniProt Q8NG83)
T1 sequence (whole entry): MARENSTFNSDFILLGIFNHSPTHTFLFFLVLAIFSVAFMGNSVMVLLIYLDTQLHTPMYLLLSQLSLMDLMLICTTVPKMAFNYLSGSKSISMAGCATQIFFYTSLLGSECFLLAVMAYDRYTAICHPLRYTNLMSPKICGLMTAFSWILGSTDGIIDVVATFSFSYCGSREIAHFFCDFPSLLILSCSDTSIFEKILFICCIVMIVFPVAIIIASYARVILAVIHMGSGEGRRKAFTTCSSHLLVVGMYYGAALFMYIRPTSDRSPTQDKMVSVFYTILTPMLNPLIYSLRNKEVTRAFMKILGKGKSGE
Outline: (§1)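 Transient luciferase assays in mammalian cell lines were common, though methods varied by source. The values come from published papers and their supplementary material, with extra details from the original authors when needed. Responsive refers to a measured signal the original authors judged statistically different from baseline, and non-responsive (inactive) to the remainder.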

OR2J2 = system: T2, OR2J2
T2 sequence (whole entry): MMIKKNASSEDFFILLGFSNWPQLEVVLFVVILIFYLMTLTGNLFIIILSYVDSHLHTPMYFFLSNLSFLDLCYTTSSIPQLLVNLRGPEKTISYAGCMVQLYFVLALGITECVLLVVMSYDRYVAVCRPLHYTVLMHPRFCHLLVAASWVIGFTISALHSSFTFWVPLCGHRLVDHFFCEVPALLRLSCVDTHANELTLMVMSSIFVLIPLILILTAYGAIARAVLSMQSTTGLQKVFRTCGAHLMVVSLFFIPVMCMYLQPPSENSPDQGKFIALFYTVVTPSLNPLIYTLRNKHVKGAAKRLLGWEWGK
Outline: as §1

OR2J3 (Homo sapiens) = target: T3, OR2J3 (Homo sapiens) (UniProt O76001)
T3 sequence (whole entry): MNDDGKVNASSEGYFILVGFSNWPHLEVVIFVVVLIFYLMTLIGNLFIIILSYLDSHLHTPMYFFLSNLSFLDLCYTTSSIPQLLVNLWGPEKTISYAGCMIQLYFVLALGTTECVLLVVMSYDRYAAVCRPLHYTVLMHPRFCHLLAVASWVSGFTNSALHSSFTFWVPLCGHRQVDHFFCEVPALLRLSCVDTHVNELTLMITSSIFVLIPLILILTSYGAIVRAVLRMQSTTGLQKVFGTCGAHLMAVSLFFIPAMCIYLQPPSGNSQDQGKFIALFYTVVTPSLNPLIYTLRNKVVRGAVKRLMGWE
Outline: as §1

OR2K2 (Homo sapiens) = target: T4, OR2K2 (Homo sapiens) (UniProt Q8NGT1)
T4 sequence (whole entry): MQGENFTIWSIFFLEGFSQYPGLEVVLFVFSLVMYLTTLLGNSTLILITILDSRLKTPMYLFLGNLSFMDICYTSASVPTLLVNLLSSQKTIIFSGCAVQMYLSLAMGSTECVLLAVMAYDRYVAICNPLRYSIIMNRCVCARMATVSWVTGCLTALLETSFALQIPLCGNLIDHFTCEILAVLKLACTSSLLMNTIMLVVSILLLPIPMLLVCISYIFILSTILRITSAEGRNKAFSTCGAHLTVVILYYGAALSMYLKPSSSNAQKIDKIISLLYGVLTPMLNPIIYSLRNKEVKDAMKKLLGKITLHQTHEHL
Outline: as §1

OR2L13 (Homo sapiens) = target: T5, OR2L13 (Homo sapiens) (UniProt Q8N349)
T5 sequence (whole entry): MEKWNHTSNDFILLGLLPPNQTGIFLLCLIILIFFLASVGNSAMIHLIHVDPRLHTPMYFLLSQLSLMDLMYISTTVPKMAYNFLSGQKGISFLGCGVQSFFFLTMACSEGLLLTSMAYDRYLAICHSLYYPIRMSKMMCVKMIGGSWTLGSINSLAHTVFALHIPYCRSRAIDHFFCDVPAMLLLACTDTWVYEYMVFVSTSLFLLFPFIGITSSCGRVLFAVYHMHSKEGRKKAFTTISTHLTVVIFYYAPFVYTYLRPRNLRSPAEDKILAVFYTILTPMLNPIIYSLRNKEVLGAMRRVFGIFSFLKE
Outline: as §1

OR2L2 (Homo sapiens) = target: T6, OR2L2 (Homo sapiens) (UniProt Q8NH16)
T6 sequence (whole entry): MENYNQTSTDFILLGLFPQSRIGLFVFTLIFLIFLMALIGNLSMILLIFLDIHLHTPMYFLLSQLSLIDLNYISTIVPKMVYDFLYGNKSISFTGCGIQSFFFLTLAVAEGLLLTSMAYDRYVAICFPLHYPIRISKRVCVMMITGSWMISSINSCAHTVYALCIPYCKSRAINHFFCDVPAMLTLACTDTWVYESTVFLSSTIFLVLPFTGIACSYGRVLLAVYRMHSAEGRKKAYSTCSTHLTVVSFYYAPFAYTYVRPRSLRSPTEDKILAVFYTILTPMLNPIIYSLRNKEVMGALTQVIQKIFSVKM
Outline: as §1

OR2L3 = system: T7, OR2L3
T7 sequence (whole entry): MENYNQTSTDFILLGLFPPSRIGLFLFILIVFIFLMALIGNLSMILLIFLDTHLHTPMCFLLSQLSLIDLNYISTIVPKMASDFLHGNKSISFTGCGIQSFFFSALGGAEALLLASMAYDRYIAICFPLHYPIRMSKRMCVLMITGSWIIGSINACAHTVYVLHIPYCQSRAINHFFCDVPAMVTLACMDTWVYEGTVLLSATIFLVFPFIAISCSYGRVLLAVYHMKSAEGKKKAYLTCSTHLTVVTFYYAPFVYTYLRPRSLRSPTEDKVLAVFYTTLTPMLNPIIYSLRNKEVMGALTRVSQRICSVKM
Outline: as §1

OR2L5 (Homo sapiens) = target: T8, OR2L5 (Homo sapiens) (UniProt Q8NG80)
T8 sequence (whole entry): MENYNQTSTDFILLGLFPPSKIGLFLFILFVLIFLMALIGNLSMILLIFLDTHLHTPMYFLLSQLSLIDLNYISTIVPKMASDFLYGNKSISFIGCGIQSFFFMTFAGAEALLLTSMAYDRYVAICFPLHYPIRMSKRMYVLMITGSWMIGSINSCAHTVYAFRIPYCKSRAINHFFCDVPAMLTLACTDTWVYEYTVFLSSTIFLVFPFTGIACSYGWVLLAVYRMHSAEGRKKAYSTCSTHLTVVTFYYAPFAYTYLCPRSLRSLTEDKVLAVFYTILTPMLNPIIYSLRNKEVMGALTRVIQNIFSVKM
Outline: as §1

OR2L8 = system: T9, OR2L8
T9 sequence (whole entry): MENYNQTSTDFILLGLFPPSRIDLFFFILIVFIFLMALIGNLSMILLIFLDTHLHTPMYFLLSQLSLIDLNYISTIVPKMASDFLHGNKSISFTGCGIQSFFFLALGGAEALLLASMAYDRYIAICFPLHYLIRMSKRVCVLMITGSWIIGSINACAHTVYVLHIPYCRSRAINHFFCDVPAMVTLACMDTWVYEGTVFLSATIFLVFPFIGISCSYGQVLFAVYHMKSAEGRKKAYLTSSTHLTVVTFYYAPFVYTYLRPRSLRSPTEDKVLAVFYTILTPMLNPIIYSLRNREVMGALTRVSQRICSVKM
Outline: as §1

OR2M2 = system: T10, OR2M2
T10 sequence (whole entry): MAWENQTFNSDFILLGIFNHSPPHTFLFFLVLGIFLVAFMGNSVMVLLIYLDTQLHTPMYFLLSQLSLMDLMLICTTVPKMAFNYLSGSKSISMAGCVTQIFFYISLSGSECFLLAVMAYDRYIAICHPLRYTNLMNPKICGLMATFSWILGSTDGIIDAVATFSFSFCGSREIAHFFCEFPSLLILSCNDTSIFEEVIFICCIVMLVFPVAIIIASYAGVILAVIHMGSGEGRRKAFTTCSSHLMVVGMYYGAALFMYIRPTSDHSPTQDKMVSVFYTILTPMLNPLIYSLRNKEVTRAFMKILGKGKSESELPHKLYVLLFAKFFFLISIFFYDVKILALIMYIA
Outline: as §1

OR2M4 (Homo sapiens) = target: T11, OR2M4 (Homo sapiens) (UniProt Q96R27)
T11 sequence (whole entry): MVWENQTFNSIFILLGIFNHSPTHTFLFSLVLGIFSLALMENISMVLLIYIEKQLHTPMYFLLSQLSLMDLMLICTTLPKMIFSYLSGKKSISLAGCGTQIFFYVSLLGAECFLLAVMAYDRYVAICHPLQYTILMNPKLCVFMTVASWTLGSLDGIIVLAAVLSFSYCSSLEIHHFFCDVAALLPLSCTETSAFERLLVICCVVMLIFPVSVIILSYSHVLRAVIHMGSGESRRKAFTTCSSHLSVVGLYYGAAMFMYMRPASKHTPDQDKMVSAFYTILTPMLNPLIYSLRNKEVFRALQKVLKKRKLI
Outline: as §1

OR2M7 (Homo sapiens) = target: T12, OR2M7 (Homo sapiens) (UniProt Q8NG81)
T12 sequence (whole entry): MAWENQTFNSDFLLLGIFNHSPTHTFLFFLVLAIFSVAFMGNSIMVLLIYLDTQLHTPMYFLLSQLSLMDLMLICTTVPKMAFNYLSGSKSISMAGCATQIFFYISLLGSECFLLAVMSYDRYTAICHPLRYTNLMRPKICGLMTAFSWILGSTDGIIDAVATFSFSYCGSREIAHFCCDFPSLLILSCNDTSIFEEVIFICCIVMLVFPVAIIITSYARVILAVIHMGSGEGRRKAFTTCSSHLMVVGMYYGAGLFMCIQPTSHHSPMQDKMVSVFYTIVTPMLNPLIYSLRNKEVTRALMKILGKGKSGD
Outline: as §1

OR2M7 [1] = system: T13, OR2M7
T13 sequence (whole entry): T12 sequence (whole entry) with F35L, V78A, C178F
Outline: as §1

OR2M7 [2] = system: T14, OR2M7; remark: listed apart in the source
T14 sequence (whole entry): T12 sequence (whole entry) with F35L, V78A, C178F, D191N
Outline: as §1

OR2S1 = system: T15, OR2S1
T15 sequence (whole entry): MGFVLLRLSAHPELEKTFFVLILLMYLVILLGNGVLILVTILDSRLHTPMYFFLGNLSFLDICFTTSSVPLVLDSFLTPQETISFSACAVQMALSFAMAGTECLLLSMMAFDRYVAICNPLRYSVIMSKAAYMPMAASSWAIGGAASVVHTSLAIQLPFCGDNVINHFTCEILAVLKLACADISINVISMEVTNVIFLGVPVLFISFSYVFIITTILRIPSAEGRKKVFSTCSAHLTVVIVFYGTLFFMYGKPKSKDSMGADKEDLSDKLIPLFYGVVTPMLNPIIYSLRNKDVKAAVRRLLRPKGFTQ
Outline: as §1

OR2T10 (Homo sapiens) = target: T16, OR2T10 (Homo sapiens) (UniProt Q8NGZ9)
T16 sequence (whole entry): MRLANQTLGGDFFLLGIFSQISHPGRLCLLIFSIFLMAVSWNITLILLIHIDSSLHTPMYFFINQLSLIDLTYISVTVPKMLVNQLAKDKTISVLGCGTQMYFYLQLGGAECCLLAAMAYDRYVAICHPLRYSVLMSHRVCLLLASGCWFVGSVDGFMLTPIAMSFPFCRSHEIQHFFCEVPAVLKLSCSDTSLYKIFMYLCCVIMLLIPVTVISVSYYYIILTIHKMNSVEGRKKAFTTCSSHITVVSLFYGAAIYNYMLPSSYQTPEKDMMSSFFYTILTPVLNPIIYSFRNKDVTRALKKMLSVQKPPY
Outline: as §1

OR2T1 = system: T17, OR2T1
T17 sequence (whole entry): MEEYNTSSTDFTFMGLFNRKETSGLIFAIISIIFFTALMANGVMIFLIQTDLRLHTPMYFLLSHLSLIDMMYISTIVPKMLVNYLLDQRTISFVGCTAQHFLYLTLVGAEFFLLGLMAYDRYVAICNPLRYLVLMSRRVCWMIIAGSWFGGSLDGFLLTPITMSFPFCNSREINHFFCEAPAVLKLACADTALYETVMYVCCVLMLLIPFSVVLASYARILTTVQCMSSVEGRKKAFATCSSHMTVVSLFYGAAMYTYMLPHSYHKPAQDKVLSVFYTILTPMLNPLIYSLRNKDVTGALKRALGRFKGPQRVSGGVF
Outline: as §1

OR2T2 = system: T18, OR2T2
T18 sequence (whole entry): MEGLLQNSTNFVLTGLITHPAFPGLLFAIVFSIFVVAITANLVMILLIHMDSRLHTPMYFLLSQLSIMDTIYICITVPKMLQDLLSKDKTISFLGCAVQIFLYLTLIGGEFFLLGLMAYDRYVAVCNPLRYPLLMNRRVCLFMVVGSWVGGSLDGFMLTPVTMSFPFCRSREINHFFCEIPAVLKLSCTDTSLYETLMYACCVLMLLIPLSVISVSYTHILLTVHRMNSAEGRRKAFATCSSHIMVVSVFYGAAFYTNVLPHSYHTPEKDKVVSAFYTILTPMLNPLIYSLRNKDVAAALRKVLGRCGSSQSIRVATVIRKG
Outline: as §1

OR2T3 (Homo sapiens) = target: T19, OR2T3 (Homo sapiens) (UniProt Q8NH03)
T19 sequence (whole entry): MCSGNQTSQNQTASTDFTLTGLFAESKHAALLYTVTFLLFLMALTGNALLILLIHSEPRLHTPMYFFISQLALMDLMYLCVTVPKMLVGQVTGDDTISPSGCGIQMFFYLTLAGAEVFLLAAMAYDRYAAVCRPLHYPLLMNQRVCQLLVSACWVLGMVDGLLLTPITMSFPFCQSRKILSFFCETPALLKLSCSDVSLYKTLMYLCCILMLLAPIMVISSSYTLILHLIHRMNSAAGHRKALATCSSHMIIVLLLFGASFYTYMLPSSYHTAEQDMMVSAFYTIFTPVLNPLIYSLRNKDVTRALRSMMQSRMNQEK
Outline: as §1

OR2T4 = system: T20, OR2T4
T20 sequence (whole entry): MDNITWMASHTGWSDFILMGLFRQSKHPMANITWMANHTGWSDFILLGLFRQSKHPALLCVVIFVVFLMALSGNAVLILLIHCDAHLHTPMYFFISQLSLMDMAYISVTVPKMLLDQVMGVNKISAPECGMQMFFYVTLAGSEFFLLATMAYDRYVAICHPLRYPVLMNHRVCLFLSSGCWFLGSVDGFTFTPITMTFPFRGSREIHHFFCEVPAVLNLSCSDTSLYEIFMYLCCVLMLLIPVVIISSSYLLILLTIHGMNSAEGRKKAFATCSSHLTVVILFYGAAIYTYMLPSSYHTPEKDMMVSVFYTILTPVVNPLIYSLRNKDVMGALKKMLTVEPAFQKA
Outline: as §1

Measured: odorant receptor agonist call;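 note: active if original authors judged signal statistically different from baseline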

CCOc1cc(C=O)ccc1O
inactive: OR2M3 (Homo sapiens)

CCCCOC(C)=O
inactive: all assays above
